Test results: PubChem BioAssay AID493014 (National Center for Advancing Translational Sciences (NCATS), 2011)
This is one part of the list. The main result of the screen is listed elsewhere. These columns were measured beside it and carry no call. Compounds called inactive in the main read-out are mostly missing here. Words in brackets tell the shape of the fitted curve; partial curves, single points and poor fits give uncertain potencies.

Assay: qHTS Assay to Find Inhibitors of Chronic Active B-Cell Receptor Signaling
Settings: ABC-DLBCL IkBa-CBG/CBR reporter, luminescence ratio (green luciferase fused to IkBa over red control in TMD8 lymphoma cells), 4 h
Method in brief: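 Doxycycline induced both beetle luciferases in TMD8 lymphoma cells; IKK-driven degradation limits the IkappaBalpha-fused green signal, while red luminescence normalises for cell number and nonspecific effects. Compounds tested up to 46 uM, 4 hrs.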

[1] = measured here: CBR red luminescence, cell number
[2] = measured here: IkBa-CBG green luminescence

Compound: CCOC(=O)C1CCN(C(=O)c2cc3c(-c4ccc(OC)c(OC)c4)nn(C)c3s2)CC1
- AC50 [1]: 5.62 µM [rising, single point]

Compound: O=C1Nc2ccc(F)cc2C12Nc1ccccc1-c1nnc(SCc3ccccc3F)nc1O2 (centres undefined)
- AC50 [1]: 35.5 µM [falling, single point]

Compound: Cc1ccc(OCC(=O)Nc2sc3c(c2C#N)CCC3)cc1
- AC50 [1]: 11.2 µM [rising, partial curve, poor fit]

Compound: Cc1ccc2cc(C3CC(c4cccs4)=NN3S(C)(=O)=O)c(Cl)nc2c1 (centres undefined)
- AC50 [1]: 35.5 µM [falling, single point]

Compound: N=C1c2ccccc2CN1NC(=O)c1cccc(S(=O)(=O)N2CCCCC2)c1
- AC50 [1]: 32.6 µM [falling, single point]

Compound: CC(C)CCNC1=CC(=O)CC(c2ccccc2)C1 (centres undefined)
- AC50 [1]: 0.326 µM [rising, full curve, poor fit]

Compound: Cc1ccc(OCC(=O)Nc2cnn(CCCC(=O)O)c2)c([N+](=O)[O-])c1
- AC50 [1]: 35.5 µM [falling, single point]

Compound: O=c1n(Cc2ccccc2)c2cc(Cl)cnc2n1Cc1ccccc1
- AC50 [1]: 11.6 µM [falling, partial curve]
- AC50 [2]: 16.4 µM [rising, partial curve, poor fit]

Compound: COc1cc(OC)cc(C(=O)N[C@H](C(=O)Nc2nc3ccc(S(C)(=O)=O)cc3s2)C(C)C)c1
- AC50 [1]: 35.5 µM [falling, single point]

Compound: COc1cc(/C=C2/NC(=O)NC2=O)ccc1OCC(=O)Nc1ccc(F)cc1
- AC50 [1]: 5.01 µM [rising, partial curve, poor fit]

Compound: O=C(C1CC1)N1N=C(c2ccc(Br)cc2)CC1(O)C(F)(F)F (centres undefined)
- AC50 [1]: 0.316 µM [rising, partial curve, poor fit]

Compound: CCOc1ccc(-c2cc(N)n(S(=O)(=O)c3ccc(OC)c(OC)c3)n2)cc1
- AC50 [1]: 29.1 µM [falling, single point]

Compound: O=C1c2[nH]nc(-c3ccccc3O)c2C(c2cccc(Cl)c2)N1Cc1ccco1 (centres undefined)
- AC50 [1]: 5.17 µM [falling, partial curve, poor fit]

Compound: CCCCCOC(=O)c1ccc(N2C(=O)C3C4C=CC(C4)C3C2=O)cc1 (centres undefined)
- AC50 [1]: 6.51 µM [rising, partial curve, poor fit]

Compound: COc1ccc(CNC(=O)c2coc(=O)c3ccccc23)cc1
- AC50 [1]: 14.1 µM [rising, partial curve, poor fit]

Compound: CN=C(N)NCCC[C@H](N)C(=O)O
- AC50 [1]: 0.0651 µM [falling, full curve, poor fit]

Compound: Cc1cccc(/C=N/NC(=O)c2ccccc2OCc2cccc(Br)c2)n1
- AC50 [1]: 11.2 µM [falling, partial curve, poor fit]

Compound: CC(NC(=O)c1ccco1)C(=O)OCC(=O)N1CCCCCC1 (centres undefined)
- AC50 [1]: 6.51 µM [rising, partial curve, poor fit]

Compound: Cc1ccc2nc(N(CCCN(C)C)C(=O)c3ccc(Br)s3)sc2c1
- AC50 [1]: 0.708 µM [falling, full curve, poor fit]

Compound: CCc1ccc(-c2cn3nc(-c4ccccc4)cnc3n2)cc1
- AC50 [1]: 35.5 µM [falling, single point]

Compound: COc1ccc(Cc2nnc(NC(=O)c3ccc(OC)cc3OC)s2)cc1
- AC50 [1]: 12.6 µM [rising, single point]
- AC50 [2]: 14.1 µM [falling, partial curve, poor fit]

Compound: O=[N+]([O-])c1ccc(-c2n(-c3ccccn3)c3ccccc3[n+]2-c2ccccn2)cc1
- AC50 [1]: 6.31 µM [rising, single point]

Compound: O=c1[nH]c(N/N=C/c2ccc(O)cc2)nc2ccccc12
- AC50 [1]: 16.4 µM [falling, partial curve]

Compound: Cc1ccc(Nc2nc(N)c([N+](=O)[O-])c(N3CCC(C)CC3)n2)cc1C
- AC50 [1]: 6.51 µM [rising, single point]

Compound: O=C(O)/C=C/c1ccc2ccccc2n1
- AC50 [1]: 25.9 µM [falling, partial curve]

Compound: COc1ccccc1NC(=O)Nc1nc(CC(=O)Nc2cccc(F)c2)cs1
- AC50 [1]: 11.6 µM [falling, partial curve, poor fit]
- AC50 [2]: 13 µM [rising, partial curve, poor fit]

Compound: O=C1NC(Cc2c[nH]c3ccccc23)C(=O)N1Cc1ccc(CN2C(=O)NC(Cc3c[nH]c4ccccc34)C2=O)cc1 (centres undefined)
- AC50 [1]: 35.5 µM [falling, single point]

Compound: CCOC(=O)N1CCC(NC(=O)c2cc(C(=O)Nc3cccc(OC)c3)ccc2CO)CC1
- AC50 [1]: 9.2 µM [rising, partial curve, poor fit]

Compound: C[C@@]12C(=O)Nc3cc(F)c(F)cc3C(=O)N1[C@H]1c3cc(Cl)ccc3OC[C@@H]1[C@@H]2c1ccccc1
- AC50 [1]: 4.61 µM [falling, full curve]

Compound: C[C@@H]1CN([C@H](C)CO)C(=O)c2cccc(NC(=O)Nc3ccc(F)cc3)c2O[C@H]1CN(C)C(=O)Nc1ccc(C(F)(F)F)cc1
- AC50 [1]: 29.1 µM [falling, single point]

Compound: CCOc1ccc2oc(C(=O)NC(C)(C)CC)c(C)c2c1
- AC50 [1]: 11.2 µM [rising, partial curve, poor fit]

Compound: O=C(c1cc(-c2cccs2)on1)N1CCCCC1
- AC50 [1]: 0.631 µM [rising, partial curve, poor fit]

Compound: COc1ccc(-c2cc(C(=O)Nc3ccccc3)on2)cc1
- AC50 [1]: 5.62 µM [falling, partial curve]

Compound: O=C(Nc1ccc(C2SCCS2)cc1)c1ccccc1
- AC50 [1]: 7.94 µM [falling, partial curve, poor fit]

Compound: COc1ccccc1CN(C)C(=O)C(NC(=O)Cc1cccc2ccccc12)C(C)C (centres undefined)
- AC50 [1]: 2.82 µM [falling, full curve]

Compound: O=C(c1ccc(S(=O)(=O)Nc2ccccc2)cc1)N1CCCCCCC1
- AC50 [1]: 31.6 µM [rising, partial curve, poor fit]

Compound: COC(=O)c1sccc1NC(=S)N1CCCCC1C (centres undefined)
- AC50 [1]: 3.26 µM [rising, partial curve, poor fit]

Compound: COc1ccc(OC)c(NC(=O)N[C@H](Cc2ccccc2)C(=O)NN)c1
- AC50 [1]: 3.55 µM [falling, single point]

Compound: C=CCC[C@@H](Cc1ccc(F)cc1)C(=O)OC[C@@H](C)NC(=O)[C@@H](CC=C)CC(=O)N[C@H](CO)Cc1ccccc1
- AC50 [1]: 20.6 µM [falling, partial curve, poor fit]

Compound: NC(=O)COC(=O)c1ccc2noc(-c3ccccc3)c2c1
- AC50 [1]: 22.4 µM [falling, single point]

Compound: N#CCCN1CCCc2cc(N=Nc3ccc(C(F)(F)F)cc3)ccc21
- AC50 [1]: 11.2 µM [rising, partial curve, poor fit]

Compound: CC1CCN(C2=NC(=O)/C(=C/c3ccccc3F)S2)CC1
- AC50 [1]: 20 µM [falling, partial curve, poor fit]

Compound: Cc1noc(C)c1COc1cccc(C(=O)NC(C)(C)C)c1
- AC50 [1]: 22.4 µM [rising, single point]

Compound: N#C/C(=C(/O)CSc1ccccc1C(=O)O)c1nc2ccccc2s1
- AC50 [1]: 4.11 µM [rising, partial curve, poor fit]

Compound: Cc1cccc2c1OCC/C2=N\NC(=O)COc1ccccc1Cl
- AC50 [1]: 0.282 µM [rising, full curve, poor fit]

Compound: S=c1[nH]nc(C2CCCCC2)n1/N=C/C=C/c1ccccc1
- AC50 [1]: 11.2 µM [rising, partial curve]

Compound: Cc1ccc2cc(CCNC(=O)c3cccs3)c(=O)[nH]c2c1C
- AC50 [1]: 2.31 µM [rising, full curve, poor fit]

Compound: O=C(CCN1CCc2ccccc2C(c2ccccc2)C1)c1ccc2c(c1)OCCO2 (centres undefined)
- AC50 [1]: 29.1 µM [falling, single point]

Compound: CCn1nc(C)c(/C=N/NC(=O)c2c[nH]c3ccccc23)c1C
- AC50 [1]: 29.1 µM [falling, single point]

Compound: CCOc1ccccc1NC(=O)CN1CCC(NC(=O)Nc2ccccc2)CC1
- AC50 [1]: 2 µM [falling, partial curve, poor fit]

Compound: CCN1CCN(c2nc(N(C)c3ccccc3)nc(N)c2[N+](=O)[O-])CC1
- AC50 [1]: 0.708 µM [rising, full curve, poor fit]

Compound: C=C1CSc2nc(=O)c3c(C)c(C)sc3n21
- AC50 [1]: 6.51 µM [rising, single point]

Compound: CCOc1ccccc1NC(=O)C1CCN(C(=O)Cc2ccccc2)CC1
- AC50 [1]: 8.91 µM [rising, partial curve, poor fit]

Compound: CCOC(=O)CSC1=NC(=O)/C(=C/c2ccc(Br)cc2)S1
- AC50 [1]: 35.5 µM [falling, single point]

Compound: CCCNc1c(NS(=O)(=O)c2c(F)c(F)c(F)c(F)c2F)c(=O)oc2ccccc12
- AC50 [1]: 3.55 µM [falling, partial curve, poor fit]

Compound: Cc1ccc(/C(N)=N/OC(=O)CSc2ccccc2)cc1
- AC50 [1]: 14.1 µM [falling, single point]

Compound: CC(C)C(=O)N1c2ccccc2NC2=C(C(=O)CCC2)C1c1ccc(N(C)C)cc1 (centres undefined)
- AC50 [1]: 31.6 µM [rising, single point]

Compound: Cc1ccccc1C(=O)N/N=C/c1cccc2ccccc12
- AC50 [1]: 7.94 µM [falling, partial curve, poor fit]

Compound: CC(C)Cn1c([N+](=O)[O-])nc2c1c(=O)[nH]c(=O)n2C
- AC50 [1]: 3.16 µM [falling, partial curve, poor fit]

Compound: CCN(Cc1ccccc1)S(=O)(=O)c1ccc(C(=O)N(CCCN(C)C)c2nc3cc4c(cc3s2)OCO4)cc1
- AC50 [1]: 35.5 µM [falling, single point]

Compound: CCc1ccc2c(c1)c1nc(C)sc1n2CC
- AC50 [1]: 8.91 µM [rising, partial curve, poor fit]
